# Assay results from the supplement of paper PMC3334620.
# The full ranking holds about 33,000 sequences; the median of “E-score (-0.5 to 0.5)” is about -8e-05, and the highest 2% start at about 0.23. Some of the results follow.
# Biological target: T1, Nrg2 (UniProt P38082)
# T1 sequence: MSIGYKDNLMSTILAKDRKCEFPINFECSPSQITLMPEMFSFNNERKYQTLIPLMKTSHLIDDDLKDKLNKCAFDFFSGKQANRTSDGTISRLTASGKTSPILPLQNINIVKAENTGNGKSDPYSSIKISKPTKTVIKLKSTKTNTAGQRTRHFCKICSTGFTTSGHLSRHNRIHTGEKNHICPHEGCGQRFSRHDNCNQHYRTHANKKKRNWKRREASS
# Experiment: PBM E-score (8-mer binding enrichment) (E-score (-0.5 to 0.5)); higher = stronger / more preferred TF binding
# Details: protein concentration: 100 nM; construct: GST-full length
# Summary of the method: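 Each ungapped eight-base word and its reverse complement, pooled, received an E-score from the Universal PBM Analysis Suite. Underlying scans, normalised with masliner, recorded fluorescent anti-GST bound to GST-tagged yeast transcription factors. These were applied at about 100-200 nM to universal all-10-mer Agilent arrays double-stranded by primer extension.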
row,Sequence,PBM E-score
1,ACTTGGTA,0.0189
2,ATACAGTG,0.115
3,AGTTATTC,0.0259
4,GTCGTGCA,0.0294
5,AAAGACTG,-0.256
6,AAGCCTTA,-0.209
7,CCATACGC,0.176
8,AGTGGTTA,0.0663
9,AGGGTAGG,0.128
10,AACACTTA,0.0637
11,GCGAAAAC,-0.0554
12,CATGGATA,-0.0473
13,AATAACGT,0.0816
14,ATAACAGG,0.0173
15,CGTTAACA,0.0761
16,CGGGAGTC,-0.0462
17,GAGCTAGC,0.0528
18,AAGATGAG,-0.101
19,GATAGTGA,0.128
20,CCAAGGGG,0.00028
21,CTCGCTAC,0.00922
22,AAACCATA,-0.047

row,Sequence,PBM E-score
1,GAGCCATA,-0.0732
2,CCACGCGA,0.0879
3,AAGAGCAC,0.0239
4,CGTGTCGC,0.0103
5,ACAATTAA,0.179
6,CACCAACC,-0.0422
7,ACAGTCAG,0.11
8,CAATCAGA,-0.0298
9,AGAAGCGA,0.0168
10,CACACTGG,-0.0291
11,CATCATTC,0.0606
12,TGTAGTAA,-0.00939
13,AATTGAAA,0.184
14,ATGTGAAG,0.0267
15,GATAATCA,0.119
16,CACTGAGG,-0.124
17,ATTCTGAC,-0.12
18,GCTCTAAC,-0.106
19,CCAGAATC,0.0274
20,CTCGGCTC,-0.0484
21,CAGAAGTA,0.158
22,GCAGCCAA,0.00266

# Reprinted at random: 3 entries already listed.
row,Sequence,PBM E-score
15,GATAATCA,0.119
8,CAATCAGA,-0.0298
17,ATTCTGAC,-0.12

# Following part

row,Sequence,PBM E-score
1,CATGGGGC,0.0617
2,ATGAGTGA,0.169
3,AGGTAAGC,-0.117
4,TCAACCCA,0.134
5,ACAAACGA,0.167
6,CCAGCCGG,-0.128
7,TCAGTGGA,-0.0446
8,TCAAAAAA,0.211
9,TGCACGAA,0.0663
10,AGTGATAG,0.0367
11,AAGTAACT,0.129
12,ACTGTTAT,0.169
13,ATCTGCAT,0.177
14,GCCTCACA,-0.0233
15,CGAGTTGC,0.106
16,ATCGACCG,-0.0487
17,CGAGAAGA,0.0748
18,CGAAATCA,0.244
19,AAGGCGAT,-0.157
20,CTGGGCGA,-0.0463
21,ATCGCGAA,0.268
22,CTATCAGC,-0.00748

row,Sequence,PBM E-score
1,CCATTGAA,0.0745
2,GGATCGTA,-0.0229
3,GTCGGCTA,0.0877
4,GAGGGATA,-0.145
5,CTAACCCC,-0.17
6,GGATCTAA,-0.034
7,CGCTTACG,-0.284
8,ATTACGTG,0.00099
9,ACACTCCA,-0.0789
10,AACCAGTC,-0.0183
11,AGGCGTGG,-0.244
12,CCAAGCAG,-0.0588
13,AACTAGCG,0.206
14,AATCTGTG,0.0299
15,AGACGGCG,0.108
16,CTCATGAC,0.071
17,AGTATCAT,0.136
18,AGTCTTTA,-0.229
19,ATAGATAG,0.0664
20,ACGCACAT,0.106
